This note sets out measurements from patent US20100317598A1.

Amino acid sequences for entries named in this document (tags omitted). Residues count along the entry.
UniProt P99999, residues 2-105: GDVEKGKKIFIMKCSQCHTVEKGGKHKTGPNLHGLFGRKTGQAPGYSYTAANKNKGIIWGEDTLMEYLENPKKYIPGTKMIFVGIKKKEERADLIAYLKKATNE
UniProt O14727: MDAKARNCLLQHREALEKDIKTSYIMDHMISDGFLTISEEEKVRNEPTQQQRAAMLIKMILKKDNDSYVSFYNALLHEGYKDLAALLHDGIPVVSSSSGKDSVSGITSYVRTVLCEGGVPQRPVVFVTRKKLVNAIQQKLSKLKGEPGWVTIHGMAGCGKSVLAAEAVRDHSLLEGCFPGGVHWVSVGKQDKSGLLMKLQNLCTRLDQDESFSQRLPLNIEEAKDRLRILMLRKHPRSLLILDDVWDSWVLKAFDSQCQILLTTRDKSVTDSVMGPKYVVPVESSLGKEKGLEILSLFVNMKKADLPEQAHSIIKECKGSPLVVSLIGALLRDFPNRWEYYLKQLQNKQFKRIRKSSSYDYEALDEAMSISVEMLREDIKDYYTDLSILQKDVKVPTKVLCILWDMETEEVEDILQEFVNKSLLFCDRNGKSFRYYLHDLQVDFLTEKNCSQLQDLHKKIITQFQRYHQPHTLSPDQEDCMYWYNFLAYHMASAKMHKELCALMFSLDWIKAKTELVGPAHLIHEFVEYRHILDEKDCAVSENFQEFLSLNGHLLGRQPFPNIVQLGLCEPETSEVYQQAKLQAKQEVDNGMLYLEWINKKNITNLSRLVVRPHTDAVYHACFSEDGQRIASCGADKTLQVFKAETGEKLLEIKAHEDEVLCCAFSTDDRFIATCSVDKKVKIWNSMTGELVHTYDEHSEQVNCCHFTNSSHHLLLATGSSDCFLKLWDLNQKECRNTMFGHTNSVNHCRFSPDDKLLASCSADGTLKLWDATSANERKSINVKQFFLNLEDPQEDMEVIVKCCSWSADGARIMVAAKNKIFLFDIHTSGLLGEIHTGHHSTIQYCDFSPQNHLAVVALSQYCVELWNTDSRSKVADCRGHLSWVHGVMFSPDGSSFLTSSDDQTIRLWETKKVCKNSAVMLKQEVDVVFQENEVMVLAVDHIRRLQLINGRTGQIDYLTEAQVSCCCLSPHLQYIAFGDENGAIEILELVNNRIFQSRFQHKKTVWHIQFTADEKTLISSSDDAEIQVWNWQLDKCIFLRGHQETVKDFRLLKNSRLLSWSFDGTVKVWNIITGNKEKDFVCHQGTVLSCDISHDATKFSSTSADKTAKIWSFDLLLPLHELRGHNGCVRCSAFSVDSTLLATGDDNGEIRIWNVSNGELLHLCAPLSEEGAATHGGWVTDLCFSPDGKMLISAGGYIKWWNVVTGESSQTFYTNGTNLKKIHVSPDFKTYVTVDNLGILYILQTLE

No constants are given. Whether binding was seen depends on the method and setting. Some entries that bind do so weakly or less than the wild type.

The test concerns the target cytochrome C (human) (UniProt P99999). As to the kind of experiment: immunopurification of cytochrome C from HBL-100 lysates, immunoblot for APAF-1. A general note: A western blot detects proteins with antibodies after separation by electrophoresis.

On to APAF-1 (from UniProt O14727 1-1248), for which the binding entry is “binds”.
